In paper PMC10648710 one finds binding data, which are given here for 15 molecules.

By UniProt entry, the sequences of proteins in these tests, tags left out. Where a name states a change or a piece, a line headed by the entry shows the natural chain unless it says otherwise.
UniProt A2DLR2: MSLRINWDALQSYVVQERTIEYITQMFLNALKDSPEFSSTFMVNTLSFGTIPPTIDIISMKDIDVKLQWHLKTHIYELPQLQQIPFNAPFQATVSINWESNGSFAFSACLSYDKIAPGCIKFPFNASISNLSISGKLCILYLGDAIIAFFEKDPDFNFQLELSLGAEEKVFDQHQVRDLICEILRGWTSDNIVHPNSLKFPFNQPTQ

Results are given in words; binding and its absence hold for the method and conditions named. In cells and extracts the contact can be indirect. These calls come from enrichment with a bait or labelling near it, and not all partners need be listed. For some of these results: No binding means not detected with the bait.

Experiment [1] has as its target T1, TvMmm2b (Trichomonas vaginalis) (UniProt A2G1M4).
T1 sequence: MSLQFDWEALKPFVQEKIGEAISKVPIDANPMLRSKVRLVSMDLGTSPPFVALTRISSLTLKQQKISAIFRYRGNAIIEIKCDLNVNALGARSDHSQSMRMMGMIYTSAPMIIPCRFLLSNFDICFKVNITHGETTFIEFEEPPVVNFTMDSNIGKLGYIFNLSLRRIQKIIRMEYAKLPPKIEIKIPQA
Briefly: affinity purification with mass spectrometry; T. vaginalis cells expressing C-terminally HA-tagged bait cross-linked with 1 mM DSP (room temperature, 30 min), solubilised in 50 mM TRIS, 150 mM NaCl, pH 7.2 with 1% Triton X-100; anti-HA Dynabeads 90 min at room temperature; LFQ MS against untransfected T1 control, FDR 0.05, S = 1; three independent coIPs for each bait.

In experiment [2] the target is TvMdm12 (Trichomonas vaginalis) (UniProt A2DLR2). The experiment is described as above.

Regarding Rab22, the binding entry in experiment [1] is reported as “binds”. Still for that read-out and setting: the result for TvMdm12 (from UniProt A2DLR2) reads “binds”; that for Tom40, “no binding”.

B1: myeloid leukemia factor (TVAG_020600) (protein, UniProt A2EXX4 1-270)
chain: MSDWFNDPFFDETSNSNDIFAHANEMFRGIDRHFQQMMKDQFDLMGPMLGYDKDYDSNRPRIGMNNTNNNSRSRVEEVDANAETSGSRSGKSPKVEEPDDFSRSNTRNRSSKVNLPREQNHESFFSGFGDDDFSNGKSYCYCSSQVSYMNGDGTVNMKRKDTDSTGKTHMAEMRRMGDKTVVYDRKVDSDGKTTDSRKVHGMNDDEVDSFNQKWDSKVKDDPFLSHMSRRGANGIGYSSSKRDSNALGYDTKKSSSRENSSHSSSRHSKH
For the molecule B1, the binding result in experiment [1] and in experiment [2] was “binds” each time.

B2: conserved hypothetical protein CHP-2 (protein, UniProt A2EK77 1-407)
chain: MVIIQLNNRTLQRINDYNAQDKVTLTINNIEIVFNKSFAIAISQMIYSQYLLDKNIDKIDINSDIMSNDTYNILKDFFQYRITEIEVDETVIKDLLHLGMSLGIQELIDLYKSNVIDKKKLDTTNCIQLLEFYMDLSWNEKLIECTDFIAEHFYKIDQNQLKLISKKLGVDILKQILNNKKLEITDEDSLAKFIISLARKDVVFSSLFENIYFEFCKEETIREMKDFVTSDNYQDVVNSLVDSIIRSRDPKNKDRCGGKEVTNYFESGNVVMSASSIDNGSAEIINKYRNDTYFQSRGEPNSWIEWKLKQNYLIQPTSYIVRTSPTYTSFLSRLQSWKVEGLTINGETKVIHEVSNSLLHEGEIRKYDIISHDRFVSFKLIQTGKNSTNTDHLLIDVFDFSGKVLEI
For the molecule B2, the binding result in experiment [1] and in experiment [2] was “binds” throughout.

B3: putative protein serine phosphatase (TVAG_274690) (protein, UniProt A2EB60 1-192)
chain: MQSSEAIDTEPKTISPVPEGRPVLVLDLDETCIYSTPAKPEKQQNFPIRIKRRNVFIQVRPGMQECIRRLSEKYEIFFYTASTKIYANKVIDAIAPFVDNEHRFFVSRDQLKDLTLINRPLGKVLLLDNSACSAQKNNLLLIKTWIGDPNDNAFTNEVMPLLDNLVKESDIPSACRNLVSSRRYPSLYVIRS
As for B3, the binding result in experiment [1] and in experiment [2] was “binds” in each case.

B4: protein with protein kinase domain (TVAG_452010) (protein, UniProt A2DJS3 1-317)
chain: MSFPDEFQEPTLENETEEDEEEEEEEENDEDAPPQERVLPFEIDNYEVFAKLTAKLHSACYEATNKNTKSKCVIKYLPSRSRFRKFKDEKIEILGILNHSNIVSIERIIMQEDFNAIVMPFYKKGDLYERIFDNKKITLENASKMMWGLVNVVKHMHCLSCIHGNISLSNILVESKTKVIITGFSMATMNKFIDSHGPMTLYTAPEVETTHKLTFATDVFALGTVFYYLLMNTYEVNKDPSKLPQDAQVLLSGMVNPNPKKRFTIFHVASNKFFYDHIPEIDMKNALVNVVGNRCLEVNTAIMEGETMIEGSDEILF
Regarding B4, the binding entry in experiment [1] and in experiment [2] was “binds” in each case.

B5: chaperon DnaJ-3 (protein, UniProt A2FNQ4 1-388)
chain: MARDFYNILGVSRDANDDAIKKAYRKLAMKWHPDKNPNNQAEAQAKFQEISEAYNVLSDPQKRKIYDQYGEEGLKVGGNPNPGPQFDSNNFGRAGPHTQYYTFNSDDAEKIFRQFFGPGGFGFGSFGDNDDVFGSMFGNAQRQAGRQSSGPQYQRFTSGNNGFPGAHFQQFTEAPEANDGLFQGRGHRIGSLDPNSNDFSRFYTFRDKADTKQKKSQSPMIVDVNCTLEQLYSGCTKKLRVTRDINGKNDAKLFQIDVKPGWKEGTKITYDGEGDIKPGYKPQNLVFVIKEKQHPLFKREADDLIYEQTIPLKQALAGTRIDITGVDEKSINLSFNEVISPGFSKRIPGLGMPRKAGGRGDLVVKFNVEFPKYLSQEQKDAMVRYLPN
Regarding B5, the binding result in experiment [1] and in experiment [2] was “binds” throughout.

B6: conserved hypothetical protein CHP-1 (protein, UniProt A2DZI9 1-287)
chain: MEGTYSTLTEVILAVFQHEQTSLLSLDKICEQVNSPDLRLDNGKGVPVPCTSISRRRISSILSSSEFFIRAGPPRSCIWALRPQNPLFLSNGALASAIEQTLTEHGPLQTEDFVTLTGLSGSNESVFSHFFLSHPDEYSMDKDNRWWFANQPQPIRQQFENVVVAIVHALHALGQESSIEEIHWYLCLATTDGNKRISRRKISRELSRRTDLFQHISRAKYSLLQPQQNQFPRKVIPEPIISKVFEPAPLTMDFQYDFPQCETPPCVNNDIFDANDFFGLSFSCNFD
For the molecule B6, the binding entry in experiment [1] and in experiment [2] was “binds” throughout.

B7: protein with EF hand-type calcium-binding domain (TVAG_454360) (protein, UniProt A2EU49 1-828)
chain: MLSPDIELYCHAIISRMKEVIRVQDLEVLTPDIDPDFRAEIKEEEFRSLVAAFPARFHPDELAALVHKYKKDKYIDFARFISDLVHPDQPIDIVITPESPKKKLPSKYEELARYLYDRCTNLSEAMAPYDKNNTGKVTADQFCRGFLGFDSAMHVFRLAVDRNTNQVDYRQLQREINTIDLKFTAQESNFAPDQIPDIVRKFVQQVNSHGIILQDVFIKLSAHTGFSDPQQFLQTLRTLKLAFTIADYQEITKAFTKEGRVDVKYFLRVANLYSQEKYVPPPPEVVIEHVKARLIDFINDRRLNIWTMFKPYDRSGNGLVPKTIFVNTLIALQFDITDREIREFVDTITVDEDKYVNYIEFAKVVYARRAVNFDETIDSVLERLRNHVIEKSVRLARCLSVYDREKSGLISTSQFIAALRRIQFTLTEKDISLIRDHYEEKKMRHFLLWRHISEDVDIQQGPVGNMSASSSNLQFSPSMREILSSSRTMTTYNTIQVSSSNPTENRPVPDNLIPVFGRIFKRTSDFGIDIADEFLRKDKLKKGRVPRAFFIETISMVNIQLSAQELSDLCQFYTCQNSTDIYYMSFLKDVDEFGTLAADTLHDDDNEEESKPEEEVKNDDYSYVPPPEECRTTRSLEKSDVPHDLESDLAQLKFGCARMHIDPIDMFKDFDKKRTGIVSKSNFARCISNSGIRLSQSIIDSLSNHFSDTKKTDNVNYLRILKAIDENANHVNYANISTDELETIKLQSHKFMERLKQQRKTIANVFDIVEDQDATMPEADFVTKVSQACPTLTNDYLRLFVKKYRAETNGMVYYMRFVNDCNKEALLF
Consider B7, for which the binding entry in experiment [1] is on record as “binds”.

B8: EF-hand protein (TVAG_157510) (protein, UniProt A2E9M3 1-720)
chain: MCAQILPKLKNYCTTRGIDIPYELEYLDRKRTGFLNELTFRKFFSNIGYPINDQQFKDIVAANTTEKGIEIAKFISSIENSQDQESQQALDIAPIYPELKRLKGYLQTNNTTLREIFRRADPSCRGYVSENAFFHELGYSTDAKKIAAAFTFDKYEGVRYSLIERELNNLQLTTTKVKPDLSKLAESFEFNGIDMNNVFNQYDRYKTGRIPVEAFNAVIRNFSRDSQPIIEYYASPDGSVDIRQFSQDINMTTQTIRSTPKVVTRQVRQVDIDELVSYLKGELRSRHVRMSDFFGDLQHEELVKPQHFQGILNTAGLTISQDEVVALSQKFMNERGLVQLQPFLALFNDAPTQRIPEINVKGLREYLNFSSRRLLPLLQRQDPQRTGEVDIGVLSTILTRSGYAMNRMELEGIKRAFAGRLSPTSIKYEELCMAVDPEIPKQQPKEEPKVEKKQRELTPELMNLLKKANNAYKRNGVCALDEFRIVDMRQTGILTAREISDAVQCAEFTPQEFNKFLSYYPDHKYMDMVRDLQRDEVKADENDQPQKQQYDDNFVQKLAVLKGDLEVRSLTVADVLGARYVPVQRAIGLLAKYTDDAPMICQAFIDRKRPELVDTAVFSREIEKIPAKKKAVTRDDAGAIYRDLGELRAKFEARHCNPRRAFAGKPPKISYDELMDALRSLNIILDGRARFRIREHFEINGEVDWNNFIEEIEKSTTLAF
Take B8: in experiment [2], the binding entry is recorded as “binds”.

B9: TvMmm2b (protein, UniProt A2G1M4 1-190)
chain: MSLQFDWEALKPFVQEKIGEAISKVPIDANPMLRSKVRLVSMDLGTSPPFVALTRISSLTLKQQKISAIFRYRGNAIIEIKCDLNVNALGARSDHSQSMRMMGMIYTSAPMIIPCRFLLSNFDICFKVNITHGETTFIEFEEPPVVNFTMDSNIGKLGYIFNLSLRRIQKIIRMEYAKLPPKIEIKIPQA
Turning to B9, the binding result in experiment [2] is “binds”.

B10: EF-hand protein (TVAG_378020) (protein, UniProt A2DAZ3 1-186)
chain: MQEDTENLVFNAKMITENPEEKARVFSISFNLREKKLSILEGKSSFCISPQRFLSPSTVIDPTTKSPYTESSFYIGSRIIAAGRLFELVDASDYTLSYMEAYPNRFPYTDVDLCFEYLKKVTENVQLKFQDANPAAFGTMPIEQAREVLYSFHPTLPKHASVTLLRRFSAEGRFNYQAVLEGANIC
As for B10, in experiment [2], the binding result is on record as “binds”.

B11: EF-hand protein (TVAG_037530) (protein, UniProt A2FCW0 1-785)
chain: MEAVQQLIARIRQTCDRNAVDVELELTSYDRKRNGIISPVSLHRWISSIGLNFTPQQVQTLAEAFKKGEGVDWKALQQTIELSKSYDQGASTKTPNCTEELRRFGSELALRRQSVREVLKQFDPANKGKVSANDFYRAFGCSPLTKLLVKVYADTITGLIDYFRLQNDVQTVSVKQVNPDAPIDELPDCFVLVWRYIKSRSVDLYGLFKRADSMNSGKLSLDAFIAAISSTGASLTPVELRDIAFPFYQVDTGYCNYKQFIATVEAYKPRVSENAPEQEKTETKPSISVDNLLNDIRQIIVSRRIHVSDYFDPLARHGNPDSCPIRVFGQIVASMQLSLSNDEIFAIAENYRLQNGEIDYHKFASAITPQQTMRSSTTIKDVIGNLKQFLATSPTTLMQSASRFDRANTGEMTVEQLQSALGMIGFDANREDLNLICQQYPGKRFATVSWRDLCTAVDPEDAELRLSARKPVEEDEVRARDPTMAGKPPKAINLLLLNIQKSANVYSLQSEFEKNDRRRRGCVPNQVFLDVLLDMQLNLNQSDVRGLISFFRVTGSPEVNYREFLSALNHAEPEPEPEPEKSYQQEKPLPDFAPIVHNFLRRFKSFSRMRRLSVSDIFEPYDPQHTGFIQVFKVAAAFNNVQFTAMRAEMEDLCSAFRDSRKKEIFNYKLFERAVEAEDIDSEWAKAGISGEPISAEVNRDAMATCLQIRDRLSCKRRRIGVAFVGIQSETITSNEFQKRLEDVGIVLRAGQLNALFRKYRVGITEEIRWKDFCTDVENSRTIGE
Regarding B11, the binding result in experiment [2] was “binds”.

B12: myeloid leukemia factor (TVAG_150300) (protein, UniProt A2DRT2 1-265)
chain: MFDDWYNDPFFNERQSNPHRDIFSHINETFREFDRHMDNMMHQAFANFGRIPFGIEDDRQSRSHRHEIGMDNSRTSTRHTPQVEEVDDSSDFSQSRASRAPRVEEPDDFSHSSPKPKKDYSVGKYSNTRSNDFSSPFGGNGQSYYYCSSSVSYSNGDGTVSTKRKDMDSTGKTHMAEMRRMGDKTVVYDRKIDSDGKTYDSRKIHGMNEDEVDSFNQKWDSRVREDPFLNRSNRNGLGYAPRKNDSNALGYDSGHHSGSRHGHRH
In the case of B12, the binding entry in experiment [1] and in experiment [2] was “binds” throughout.
